Data from the supplement of paper PMC10849652.
Some of the results follow.

Sequences of proteins named here, by UniProt entry; tags and fusion partners are left off. A change or cut given only in a name is not applied to a line headed by its entry.
UniProt Q9NXR7, whole entry, looked up: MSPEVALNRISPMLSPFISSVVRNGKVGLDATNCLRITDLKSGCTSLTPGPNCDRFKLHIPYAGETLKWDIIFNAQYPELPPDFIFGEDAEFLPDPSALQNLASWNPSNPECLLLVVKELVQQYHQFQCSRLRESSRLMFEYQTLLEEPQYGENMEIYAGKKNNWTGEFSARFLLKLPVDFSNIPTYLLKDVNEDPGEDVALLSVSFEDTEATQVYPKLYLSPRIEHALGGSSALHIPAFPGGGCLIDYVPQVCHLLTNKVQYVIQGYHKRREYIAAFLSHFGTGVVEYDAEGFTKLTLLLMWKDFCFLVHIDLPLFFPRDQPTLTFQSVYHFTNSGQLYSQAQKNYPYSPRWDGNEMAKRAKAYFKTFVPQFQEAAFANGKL
UniProt Q9UL45: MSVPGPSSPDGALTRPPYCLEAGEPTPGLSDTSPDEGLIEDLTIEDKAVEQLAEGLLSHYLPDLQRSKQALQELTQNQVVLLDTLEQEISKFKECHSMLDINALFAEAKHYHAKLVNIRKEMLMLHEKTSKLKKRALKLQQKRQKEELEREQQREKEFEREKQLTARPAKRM
UniProt P46379: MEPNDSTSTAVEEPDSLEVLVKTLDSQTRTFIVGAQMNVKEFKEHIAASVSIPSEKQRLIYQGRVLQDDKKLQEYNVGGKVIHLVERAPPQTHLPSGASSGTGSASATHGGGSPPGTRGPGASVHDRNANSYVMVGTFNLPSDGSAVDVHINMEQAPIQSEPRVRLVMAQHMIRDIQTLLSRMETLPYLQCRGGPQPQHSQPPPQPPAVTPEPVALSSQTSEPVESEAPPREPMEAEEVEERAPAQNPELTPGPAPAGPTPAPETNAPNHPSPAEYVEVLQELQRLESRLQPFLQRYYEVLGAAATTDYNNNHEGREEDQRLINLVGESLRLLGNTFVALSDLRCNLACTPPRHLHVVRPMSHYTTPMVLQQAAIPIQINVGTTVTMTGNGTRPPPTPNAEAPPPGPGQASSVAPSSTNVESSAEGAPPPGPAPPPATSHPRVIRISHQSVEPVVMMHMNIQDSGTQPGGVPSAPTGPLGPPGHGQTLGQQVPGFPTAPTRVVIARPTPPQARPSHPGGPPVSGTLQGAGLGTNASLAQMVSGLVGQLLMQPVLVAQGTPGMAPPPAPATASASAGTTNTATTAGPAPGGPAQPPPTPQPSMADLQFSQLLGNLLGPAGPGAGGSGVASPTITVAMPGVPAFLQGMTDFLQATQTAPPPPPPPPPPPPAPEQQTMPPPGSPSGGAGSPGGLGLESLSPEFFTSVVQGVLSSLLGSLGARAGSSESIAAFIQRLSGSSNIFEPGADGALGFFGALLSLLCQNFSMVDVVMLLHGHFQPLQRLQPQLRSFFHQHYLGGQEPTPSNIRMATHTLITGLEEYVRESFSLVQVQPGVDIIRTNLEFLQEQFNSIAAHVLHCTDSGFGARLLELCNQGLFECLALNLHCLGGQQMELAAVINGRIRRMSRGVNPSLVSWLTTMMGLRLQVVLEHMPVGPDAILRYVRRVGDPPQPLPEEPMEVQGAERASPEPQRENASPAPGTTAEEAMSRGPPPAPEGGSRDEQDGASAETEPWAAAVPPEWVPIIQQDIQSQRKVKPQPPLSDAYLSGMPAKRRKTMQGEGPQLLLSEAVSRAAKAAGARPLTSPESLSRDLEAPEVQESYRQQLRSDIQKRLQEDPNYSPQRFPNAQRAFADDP
UniProt Q16611: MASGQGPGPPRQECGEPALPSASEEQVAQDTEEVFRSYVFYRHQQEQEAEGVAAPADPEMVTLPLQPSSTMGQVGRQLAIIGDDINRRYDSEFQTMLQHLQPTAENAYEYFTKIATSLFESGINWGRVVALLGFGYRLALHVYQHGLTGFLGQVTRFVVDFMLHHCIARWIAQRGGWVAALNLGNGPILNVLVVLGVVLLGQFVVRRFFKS
UniProt Q9NP55: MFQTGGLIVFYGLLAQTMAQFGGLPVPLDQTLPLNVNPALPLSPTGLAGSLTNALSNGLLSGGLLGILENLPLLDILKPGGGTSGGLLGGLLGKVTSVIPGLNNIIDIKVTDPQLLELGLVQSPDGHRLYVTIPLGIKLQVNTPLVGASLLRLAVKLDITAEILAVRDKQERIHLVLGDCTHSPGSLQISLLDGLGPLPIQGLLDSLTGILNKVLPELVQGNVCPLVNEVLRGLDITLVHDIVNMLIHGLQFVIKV
UniProt Q9HCU9: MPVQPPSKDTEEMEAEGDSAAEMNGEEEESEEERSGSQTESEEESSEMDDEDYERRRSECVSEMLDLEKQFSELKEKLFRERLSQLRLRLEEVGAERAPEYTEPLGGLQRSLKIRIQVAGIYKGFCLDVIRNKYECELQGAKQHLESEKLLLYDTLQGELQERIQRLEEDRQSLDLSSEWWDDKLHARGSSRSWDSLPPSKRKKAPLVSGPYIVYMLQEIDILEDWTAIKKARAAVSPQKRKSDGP
UniProt Q5PSV4: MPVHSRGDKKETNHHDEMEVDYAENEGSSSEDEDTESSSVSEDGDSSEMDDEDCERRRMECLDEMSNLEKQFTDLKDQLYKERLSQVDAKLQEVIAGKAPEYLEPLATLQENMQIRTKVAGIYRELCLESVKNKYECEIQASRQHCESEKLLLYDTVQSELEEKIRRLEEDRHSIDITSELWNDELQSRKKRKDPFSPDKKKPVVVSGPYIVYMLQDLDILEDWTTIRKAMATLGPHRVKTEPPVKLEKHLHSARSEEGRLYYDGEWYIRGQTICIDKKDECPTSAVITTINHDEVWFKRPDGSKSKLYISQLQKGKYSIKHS
UniProt Q96B45: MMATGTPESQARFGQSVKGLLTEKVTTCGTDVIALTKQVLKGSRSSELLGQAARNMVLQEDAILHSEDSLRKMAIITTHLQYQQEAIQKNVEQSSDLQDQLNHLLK
UniProt Q92994: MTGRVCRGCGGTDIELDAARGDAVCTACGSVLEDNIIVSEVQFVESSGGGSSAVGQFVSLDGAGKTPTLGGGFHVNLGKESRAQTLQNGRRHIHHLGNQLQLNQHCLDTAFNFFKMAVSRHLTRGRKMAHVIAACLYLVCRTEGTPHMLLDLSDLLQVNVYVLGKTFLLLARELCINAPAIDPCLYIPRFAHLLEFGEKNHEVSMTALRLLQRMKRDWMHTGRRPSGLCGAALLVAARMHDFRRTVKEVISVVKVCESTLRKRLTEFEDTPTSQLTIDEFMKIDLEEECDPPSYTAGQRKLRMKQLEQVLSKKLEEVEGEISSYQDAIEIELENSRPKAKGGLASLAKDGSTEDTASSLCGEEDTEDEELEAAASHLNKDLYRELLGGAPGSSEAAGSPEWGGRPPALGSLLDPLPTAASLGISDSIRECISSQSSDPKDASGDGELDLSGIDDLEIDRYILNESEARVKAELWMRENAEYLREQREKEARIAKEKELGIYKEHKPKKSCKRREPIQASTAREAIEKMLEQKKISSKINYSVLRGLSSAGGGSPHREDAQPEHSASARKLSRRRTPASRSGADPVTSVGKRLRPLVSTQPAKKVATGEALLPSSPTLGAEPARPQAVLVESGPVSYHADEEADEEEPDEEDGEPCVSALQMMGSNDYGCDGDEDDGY
UniProt Q12983, whole entry, looked up: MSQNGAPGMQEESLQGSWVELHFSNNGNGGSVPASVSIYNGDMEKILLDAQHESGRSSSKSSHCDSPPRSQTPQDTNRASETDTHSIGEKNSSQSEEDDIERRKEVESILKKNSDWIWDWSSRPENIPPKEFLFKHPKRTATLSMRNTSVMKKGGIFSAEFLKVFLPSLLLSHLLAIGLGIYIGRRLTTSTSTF
UniProt O00499: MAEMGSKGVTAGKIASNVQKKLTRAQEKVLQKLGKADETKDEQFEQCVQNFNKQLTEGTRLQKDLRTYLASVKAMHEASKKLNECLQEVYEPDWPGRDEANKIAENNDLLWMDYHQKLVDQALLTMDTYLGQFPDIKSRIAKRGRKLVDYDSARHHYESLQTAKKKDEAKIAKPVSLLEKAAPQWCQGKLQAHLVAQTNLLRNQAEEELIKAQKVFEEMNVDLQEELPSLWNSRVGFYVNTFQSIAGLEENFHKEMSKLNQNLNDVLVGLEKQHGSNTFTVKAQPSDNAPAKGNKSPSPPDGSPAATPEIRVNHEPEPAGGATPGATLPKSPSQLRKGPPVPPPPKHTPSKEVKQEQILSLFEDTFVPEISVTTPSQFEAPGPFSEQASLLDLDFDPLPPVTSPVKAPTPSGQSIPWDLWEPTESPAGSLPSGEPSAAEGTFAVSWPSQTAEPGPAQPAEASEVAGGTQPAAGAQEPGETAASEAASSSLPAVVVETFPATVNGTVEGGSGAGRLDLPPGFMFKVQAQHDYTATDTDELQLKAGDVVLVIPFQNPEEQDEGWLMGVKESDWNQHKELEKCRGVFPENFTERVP
UniProt Q9BXY8: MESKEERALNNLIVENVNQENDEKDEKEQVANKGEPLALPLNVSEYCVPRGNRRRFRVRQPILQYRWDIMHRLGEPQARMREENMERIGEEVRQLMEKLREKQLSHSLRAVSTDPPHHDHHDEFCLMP
UniProt Q8IXM2, whole entry, looked up: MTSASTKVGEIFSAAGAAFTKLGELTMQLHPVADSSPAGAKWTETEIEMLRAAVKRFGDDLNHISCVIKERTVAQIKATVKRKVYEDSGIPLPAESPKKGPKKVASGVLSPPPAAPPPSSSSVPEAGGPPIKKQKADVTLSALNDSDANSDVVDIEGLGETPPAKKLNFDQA
UniProt Q9NZM4: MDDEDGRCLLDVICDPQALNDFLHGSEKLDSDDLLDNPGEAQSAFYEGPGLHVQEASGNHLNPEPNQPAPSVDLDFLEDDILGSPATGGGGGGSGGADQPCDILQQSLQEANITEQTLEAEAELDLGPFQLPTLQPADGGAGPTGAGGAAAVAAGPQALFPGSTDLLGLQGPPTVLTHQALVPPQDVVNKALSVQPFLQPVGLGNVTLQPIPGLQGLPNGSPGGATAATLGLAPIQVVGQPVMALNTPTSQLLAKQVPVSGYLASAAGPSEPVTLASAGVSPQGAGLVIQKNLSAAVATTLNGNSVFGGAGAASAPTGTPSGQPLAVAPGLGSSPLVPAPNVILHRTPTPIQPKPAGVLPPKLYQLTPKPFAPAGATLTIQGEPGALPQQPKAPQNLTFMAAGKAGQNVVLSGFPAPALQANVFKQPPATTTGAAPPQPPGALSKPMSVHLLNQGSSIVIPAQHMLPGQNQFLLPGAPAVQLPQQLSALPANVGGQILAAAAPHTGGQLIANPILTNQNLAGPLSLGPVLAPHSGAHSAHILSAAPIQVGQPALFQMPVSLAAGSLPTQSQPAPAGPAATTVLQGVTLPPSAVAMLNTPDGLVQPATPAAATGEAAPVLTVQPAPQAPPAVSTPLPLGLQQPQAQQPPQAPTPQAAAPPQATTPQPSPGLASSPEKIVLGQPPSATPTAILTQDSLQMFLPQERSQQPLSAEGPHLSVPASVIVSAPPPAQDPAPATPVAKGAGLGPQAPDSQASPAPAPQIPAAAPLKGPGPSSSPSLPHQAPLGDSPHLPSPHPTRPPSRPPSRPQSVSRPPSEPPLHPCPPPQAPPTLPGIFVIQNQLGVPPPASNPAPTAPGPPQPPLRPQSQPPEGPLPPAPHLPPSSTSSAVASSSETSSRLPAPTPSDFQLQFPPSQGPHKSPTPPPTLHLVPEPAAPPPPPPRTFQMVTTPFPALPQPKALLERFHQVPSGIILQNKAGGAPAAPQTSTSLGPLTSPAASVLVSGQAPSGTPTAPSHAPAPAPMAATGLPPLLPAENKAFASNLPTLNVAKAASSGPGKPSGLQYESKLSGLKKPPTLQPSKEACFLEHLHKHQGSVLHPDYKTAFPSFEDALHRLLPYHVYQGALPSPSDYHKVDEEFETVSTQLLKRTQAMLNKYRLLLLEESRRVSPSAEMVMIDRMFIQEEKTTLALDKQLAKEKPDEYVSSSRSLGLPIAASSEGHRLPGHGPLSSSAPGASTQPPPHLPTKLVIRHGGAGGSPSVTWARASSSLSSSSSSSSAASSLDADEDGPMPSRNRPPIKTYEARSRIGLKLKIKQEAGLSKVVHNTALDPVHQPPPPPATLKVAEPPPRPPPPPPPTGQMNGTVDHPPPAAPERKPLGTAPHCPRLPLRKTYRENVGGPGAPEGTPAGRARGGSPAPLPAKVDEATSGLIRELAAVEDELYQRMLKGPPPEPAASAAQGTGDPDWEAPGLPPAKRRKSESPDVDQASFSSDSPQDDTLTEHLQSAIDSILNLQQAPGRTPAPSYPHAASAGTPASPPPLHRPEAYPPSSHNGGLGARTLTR

Assays:
Assay in all cases: log2 fold change, soluble protein after heating vs DMSO (PISA); higher = thermal stabilisation; K562 lysate, 10 uM; active = over 0.2 and 3.5 SD of the protein, either way, in both replicates (recomputed)
vemurafenib = compound: CCCS(=O)(=O)Nc1ccc(F)c(C(=O)c2c[nH]c3ncc(-c4ccc(Cl)cc4)cc23)c1F [vemurafenib]
How it was run: (§1)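 Dounce homogenisation of K562 pellets in PBS pH 7.4 with 1 mM MgCl2 produced a crude extract, used at 1 mg/mL protein. Exposure to 10 μM compound lasted 30 min, and aliquots were then heated for 3 min across 48°C-58°C, pooled and brought to 0.5% NP-40 at 4°C. The supernatant after 21,000xg for 90 min was quantified by TMTpro 16plex LC-MS/MS with channel sums equalised. Duplicate values are given as log-two fold change in thermal stability relative to solvent controls.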

[1] = compound: CCCS(=O)(=O)Nc1ccc(F)c(C(=O)c2c[nH]c3ncc(Cl)cc23)c1F
How it was run: as §1

barasertib = compound: CCN(CCCOc1ccc2c(Nc3cc(CC(=O)Nc4cccc(F)c4)[nH]n3)ncnc2c1)CCOP(=O)(O)O [barasertib]
How it was run: as §1

[2] = compound: CC[C@@H]1C(=O)N(C)c2cnc(Nc3ccc(C(=O)NC4CCN(C)CC4)cc3OC)nc2N1C1CCCC1
How it was run: as §1

volasertib = compound: CC[C@@H]1C(=O)N(C)c2cnc(Nc3ccc(C(=O)N[C@H]4CC[C@H](N5CCN(CC6CC6)CC5)CC4)cc3OC)nc2N1C(C)C [volasertib]
How it was run: as §1

[3] = compound: CCn1c(C(=O)N(C2CC2)C2CC2)cc2c3c(ncn3C)c(Nc3cc(C)n(C)n3)nc21
How it was run: as §1

[4] = compound: CCn1cc(-c2ccnc3[nH]c(-c4cccc(CN(C)C)c4)cc23)c(-c2ccc(NC(=O)N(C)C)cc2)n1
How it was run: as §1

[5] = compound: CN1CCC(CNc2ccc3ncc(-c4cccc(OC(F)(F)F)c4)n3n2)CC1
How it was run: as §1

saracatinib = compound: CN1CCN(CCOc2cc(OC3CCOCC3)c3c(Nc4c(Cl)ccc5c4OCO5)ncnc3c2)CC1 [saracatinib]
How it was run: as §1

sotrastaurin = compound: CN1CCN(c2nc(C3=C(c4c[nH]c5ccccc45)C(=O)NC3=O)c3ccccc3n2)CC1 [sotrastaurin]
How it was run: as §1

alvocidib = compound: CN1CC[C@H](c2c(O)cc(O)c3c(=O)cc(-c4ccccc4Cl)oc23)[C@H](O)C1 [alvocidib]
How it was run: as §1

Tubastatin A = compound: CN1CCc2c(c3ccccc3n2Cc2ccc(C(=O)NO)cc2)C1 [Tubastatin A]
How it was run: as §1

[6] = compound: CNC(=O)C1=CC=CC=C1NC2=NC(=NC=C2Cl)NC3=C(C=C(C=C3)N4CCOCC4)OC
How it was run: as §1

defactinib = compound: CNC(=O)c1ccc(Nc2ncc(C(F)(F)F)c(NCc3nccnc3N(C)S(C)(=O)=O)n2)cc1 [defactinib]
How it was run: as §1

[7] = compound: CNc1nc(-c2ccc3c(N)n[nH]c3c2)cc(N2C[C@@H](C(=O)NC3CCCCC3)CC[C@H]2C)n1
How it was run: as §1

encorafenib = compound: COC(=O)N[C@@H](C)CNc1nccc(-c2cn(C(C)C)nc2-c2cc(Cl)cc(NS(C)(=O)=O)c2F)n1 [encorafenib]
How it was run: as §1

[8] = compound: COC(=O)[C@H](CCSC)NC(=O)C1=C(C=C(C=C1)NC[C@H](CS)N)C2=CC=CC=C2
How it was run: as §1

alisertib = compound: COc1cc(Nc2ncc3c(n2)-c2ccc(Cl)cc2C(c2c(F)cccc2OC)=NC3)ccc1C(=O)O [alisertib]
How it was run: as §1

[9] = compound: COc1cc2nc(-c3cc(F)ccc3O)nc(N[C@@H]3CNC[C@H]3C(C)(C)O)c2cc1OC
How it was run: as §1

gefitinib = compound: COc1cc2ncnc(Nc3ccc(F)c(Cl)c3)c2cc1OCCCN1CCOCC1 [gefitinib]
How it was run: as §1

Measured: log2 fold change

BABAM2 (UniProt Q9NXR7)
inactive: vemurafenib 0.018 | [1] 0.005 | barasertib 0.024 | [2] 0.059 | volasertib 0 | [3] -0.005 | [4] -0.1 | [5] 0.065 | saracatinib 0.017 | sotrastaurin -0.01 | alvocidib -0.057 | Tubastatin A 0.001 | [6] -0.006 | defactinib -0.008 | [7] -0.029 | encorafenib 0.011 | [8] 0.03 | alisertib 0.009 | [9] 0.014 | gefitinib -0.006

BLOC1S6 (UniProt Q9UL45)
inactive: vemurafenib 0.005 | [1] 0.007 | barasertib -0.012 | [2] 0.013 | volasertib 0.032 | [3] 0.043 | [4] 0.048 | [5] 0.009 | saracatinib -0.034 | sotrastaurin -0.06 | alvocidib -0.028 | Tubastatin A 0.033 | [6] 0.051 | defactinib 0.014 | [7] 0.082 | encorafenib 0.147 | [8] 0.056 | alisertib -0.22 | [9] -0.036 | gefitinib 0.047

BAG6 isoform 3 (UniProt P46379)
inactive: vemurafenib -0.044 | [1] 0.006 | barasertib -0.009 | [2] -0.004 | volasertib 0.001 | [3] -0.002 | [4] 0.016 | [5] -0.056 | saracatinib 0.018 | sotrastaurin -0.006 | alvocidib 0.025 | Tubastatin A -0.03 | [6] 0.02 | defactinib 0.022 | [7] -0.015 | encorafenib 0.051 | [8] -0.031 | alisertib -0.005 | [9] -0.028 | gefitinib -0.027

BRCA1 isoform 7 (UniProt P38398)
inactive: vemurafenib 0.003 | [1] -0.07 | barasertib 0.014 | [2] 0.016 | volasertib 0.031 | [3] 0.031 | [4] 0.05 | [5] -0.107 | saracatinib 0.01 | sotrastaurin -0.019 | alvocidib 0.04 | Tubastatin A -0.061 | [6] 0 | defactinib -0.007 | [7] 0.025 | encorafenib 0.073 | [8] 0.095 | alisertib -0.123 | [9] 0.055 | gefitinib 0.05

BAK1 (UniProt Q16611)
inactive: vemurafenib 0.045 | [1] 0.056 | [2] 0.15 | volasertib -0.064 | [3] -0.138 | [4] -0.005 | [5] -0.025 | saracatinib 0.175 | sotrastaurin 0.014 | alvocidib 0.115 | Tubastatin A 0.163 | [6] -0.172 | defactinib 0.076 | [7] 0.024 | encorafenib 0.025 | [8] -0.113 | [9] -0.137

Fetched one by one from the entries so far, 2 records:
BRCA1 isoform 7 (UniProt P38398)
inactive: vemurafenib 0.003 | [1] -0.07 | barasertib 0.014 | [2] 0.016 | volasertib 0.031 | [3] 0.031 | [4] 0.05 | [5] -0.107 | saracatinib 0.01 | sotrastaurin -0.019 | alvocidib 0.04 | Tubastatin A -0.061 | [6] 0 | defactinib -0.007 | [7] 0.025 | encorafenib 0.073 | [8] 0.095 | alisertib -0.123 | [9] 0.055 | gefitinib 0.05

BAK1 (UniProt Q16611)
inactive: vemurafenib 0.045 | [1] 0.056 | [2] 0.15 | volasertib -0.064 | [3] -0.138 | [4] -0.005 | [5] -0.025 | saracatinib 0.175 | sotrastaurin 0.014 | alvocidib 0.115 | Tubastatin A 0.163 | [6] -0.172 | defactinib 0.076 | [7] 0.024 | encorafenib 0.025 | [8] -0.113 | [9] -0.137

Next part

BCORL1 isoform 3 (UniProt Q5H9F3)
inactive: vemurafenib 0.123 | [2] -0.033 | [3] -0.018 | [4] -0.546 | [5] 0.344 | saracatinib -0.082 | sotrastaurin -0.099 | alvocidib -0.328 | Tubastatin A -0.006 | [6] -0.064 | defactinib -0.213 | [7] 0.113 | encorafenib 0.022 | [8] 0.021

BPIFA1 (UniProt Q9NP55)
inactive: vemurafenib 0.066 | [2] -0.267 | [3] 0.149 | [4] 0.54 | [5] -0.597 | saracatinib -0.44 | alvocidib -0.135 | Tubastatin A 0.062 | [6] 0.781 | defactinib 0.024 | [7] -0.23 | encorafenib -0.139 | [8] 0.093 | alisertib 0.022 | gefitinib -0.018

BCL9 (UniProt O00512)
inactive: vemurafenib -0.101 | barasertib 0.029 | [3] -0.266 | [4] -0.043 | [5] -0.079 | sotrastaurin 0.016 | alvocidib -0.051 | Tubastatin A 0.239 | [6] -0.046 | defactinib -0.005

BORA (UniProt Q6PGQ7)
inactive: vemurafenib -0.056 | barasertib -0.031 | [2] 0.083 | [3] -0.034 | [4] 0.228 | [5] 0.034 | saracatinib 0.066 | sotrastaurin -0.038 | alvocidib -0.042 | Tubastatin A 0.01 | [6] 0.037 | defactinib -0.056 | [7] -0.074 | encorafenib -0.042 | [8] -0.005 | alisertib 0.061 | gefitinib 0.021

BRMS1 (UniProt Q9HCU9)
inactive: vemurafenib 0.036 | [1] -0.02 | [2] 0.023 | volasertib 0.027 | [3] -0.079 | saracatinib -0.045 | sotrastaurin -0.149 | Tubastatin A -0.091 | [6] 0.009 | defactinib -0.08 | [7] -0.029 | encorafenib -0.051 | [8] -0.085 | alisertib 0.077 | [9] -0.001 | gefitinib -0.01

BRMS1L (UniProt Q5PSV4)
inactive: vemurafenib 0.106 | [1] 0.133 | [2] 0.096 | volasertib -0.091 | defactinib 0.161 | encorafenib -0.044 | [8] 0.078 | [9] -0.103

BORCS7 (UniProt Q96B45)
inactive: vemurafenib -0.039 | [1] 0.012 | barasertib 0.18 | volasertib 0.048 | [4] -0.004 | [5] -0.182 | sotrastaurin 0.004 | alvocidib 0.125 | [6] -0.18 | defactinib 0.17 | alisertib -0.106 | [9] 0.051 | gefitinib -0.297

BRF1 (UniProt Q92994)
inactive: vemurafenib 0.061 | barasertib 0.035 | [2] 0.022 | [3] -0.051 | [4] -0.071 | [5] -0.038 | saracatinib -0.04 | sotrastaurin -0.013 | alvocidib 0.047 | Tubastatin A -0.274 | [6] 0.081 | defactinib 0.026 | [7] -0.001 | encorafenib 0.04 | [8] 0.136 | alisertib 0.04 | gefitinib 0.278

BNIP3 (UniProt Q12983)
inactive: [1] 0.035 | barasertib -0.037 | [2] 0.069 | volasertib 0.116 | [3] -0.023 | [4] -0.307 | [5] 0.149 | saracatinib 0.118 | sotrastaurin 0.03 | alvocidib -0.065 | Tubastatin A -0.058 | [6] 0.076 | [7] 0.081 | encorafenib 0.015 | [8] 0.018 | alisertib -0.043 | [9] -0.128 | gefitinib 0.021

BIN1 (UniProt O00499)
inactive: vemurafenib -0.023 | [1] 0.172 | [2] -0.016 | volasertib -0.214 | [4] -0.235 | [5] 0.139 | alvocidib -0.084 | [6] -0.022 | defactinib 0 | encorafenib 0.156 | [8] -0.003 | alisertib -0.028 | [9] -0.117 | gefitinib -0.128

BNIP2 (UniProt H7C096)
inactive: [1] 0.082 | barasertib 0.022 | [2] -0.072 | volasertib 0.021 | [4] -0.037 | [5] -0.027 | alvocidib -0.061 | encorafenib 0.11 | [8] 0.023 | [9] -0.028

BEX2 isoform 2 (UniProt Q9BXY8)
inactive: vemurafenib 0.126 | [1] -0.077 | volasertib 0.083 | [4] -0.163 | [5] 0.131 | alvocidib -0.001 | defactinib -0.097 | [9] 0.012

BAP18 isoform 3 (UniProt Q8IXM2)
inactive: vemurafenib -0.075 | [1] -0.012 | [2] 0.227 | volasertib 0.135 | [4] 0.1 | [5] 0.109 | alvocidib 0.061 | [6] 0.113 | defactinib -0.103 | encorafenib 0.043 | [8] 0.096 | alisertib 0.226 | [9] -0.095 | gefitinib 0.051

BAHCC1 (UniProt Q9P281)
inactive: vemurafenib 0.11 | [1] 0.004 | [2] -0.247 | volasertib 0 | [4] 0.415 | [5] 0.219 | saracatinib 0.025 | sotrastaurin 0.127 | alvocidib -0.569 | [6] -0.135 | defactinib -0.208 | [7] -0.054 | encorafenib 0.038 | [8] -0.024 | alisertib 0.085 | [9] 0.076 | gefitinib 0.095

B4GALT7 (UniProt Q9UBV7)
inactive: vemurafenib 0.193 | [2] 0.128 | [4] 0.329 | [5] -0.04 | sotrastaurin 0.002 | alvocidib 0.08 | [6] -0.034 | defactinib -0.065 | encorafenib -0.004 | [8] 0.093

BICRA (UniProt Q9NZM4)
inactive: [1] 0.055 | barasertib 0.165 | volasertib 0.036 | [3] -0.233 | [4] -0.133 | [5] -0.048 | saracatinib 0.02 | sotrastaurin 0 | alvocidib -0.113 | Tubastatin A 0.335 | [6] 0.101 | [9] 0.132
active: [7] 0.884

BRCA2 (UniProt P51587)
inactive: vemurafenib 0.052 | barasertib 0.242 | [2] 0.152 | [3] -0.09 | [4] -0.005 | [5] 0.127 | saracatinib 0.015 | sotrastaurin -0.064 | alvocidib -0.106 | Tubastatin A -0.068 | [6] -0.008 | defactinib 0.076 | [7] 0.285 | encorafenib -0.014 | [8] 0.047 | alisertib -0.006 | gefitinib -0.16

BAZ1A (UniProt Q9NRL2)
inactive: vemurafenib 0.085 | barasertib 0.082 | [2] 0.007 | [3] -0.051 | [4] -0.151 | [5] 0.049 | saracatinib 0.01 | sotrastaurin 0.042 | alvocidib -0.078 | Tubastatin A 0.006 | [6] -0.067 | defactinib -0.07 | [7] -0.033 | encorafenib -0.072 | [8] 0.15 | alisertib 0.009 | gefitinib 0.038
